## Cleaved PARP after 72 h of treatment

From a melanoma drug combination screen (doi:10.1371/journal.pone.0140310); values rounded.

Compounds and concentrations:
JZL184 (5 µM): O=C(Oc1ccc([N+](=O)[O-])cc1)N1CCC(C(O)(c2ccc3c(c2)OCO3)c2ccc3c(c2)OCO3)CC1
docetaxel (0.0005 µM): CC(=O)O[C@@]12CO[C@@H]1C[C@H](O)[C@@]1(C)C(=O)[C@H](O)C3=C(C)[C@@H](OC(=O)[C@H](O)[C@@H](NC(=O)OC(C)(C)C)c4ccccc4)C[C@@](O)([C@@H](OC(=O)c4ccccc4)[C@H]21)C3(C)C
OSU-03012 (5 µM): NCC(=O)Nc1ccc(-n2nc(C(F)(F)F)cc2-c2ccc3c(ccc4ccccc43)c2)cc1
GW2580 (5 µM): COc1ccc(COc2ccc(Cc3cnc(N)nc3N)cc2OC)cc1
cisplatin (8 µM): N.N.[Cl][Pt][Cl]
CHIR-265 (0.4 µM): Cn1c(Nc2ccc(C(F)(F)F)cc2)nc2cc(Oc3ccnc(-c4ncc(C(F)(F)F)[nH]4)c3)ccc21
GSK650394 (0.8 µM): O=C(O)c1ccc(-c2c[nH]c3ncc(-c4ccccc4)cc23)cc1C1CCCC1
darinaparsin (2 µM): C[As](C)SC[C@H](NC(=O)CC[C@H](N)C(=O)O)C(=O)NCC(=O)O
Src-I1 (10 µM): COc1cc2ncnc(Nc3ccc(Oc4ccccc4)cc3)c2cc1OC
tamatinib (2 µM): COc1cc(Nc2ncc(F)c(Nc3ccc4c(n3)NC(=O)C(C)(C)O4)n2)cc(OC)c1OC
SU6656 (2 µM): CN(C)S(=O)(=O)c1ccc2c(c1)/C(=C/c1cc3c([nH]1)CCCC3)C(=O)N2
temozolomide (10 µM): Cn1nnc2c(C(N)=O)ncn2c1=O
SNS-314 (0.004 µM): O=C(Nc1cccc(Cl)c1)Nc1ncc(CCNc2ncnc3ccsc23)s1
cediranib (2 µM): COc1cc2c(Oc3ccc4[nH]c(C)cc4c3F)ncnc2cc1OCCCN1CCCC1
sunitinib (2 µM): CCN(CC)CCNC(=O)c1c(C)[nH]c(/C=C2\C(=O)Nc3ccc(F)cc32)c1C
decitabine (0.5 µM): Nc1ncn([C@H]2C[C@H](O)[C@@H](CO)O2)c(=O)n1
fingolimod (10 µM): CCCCCCCCc1ccc(CCC(N)(CO)CO)cc1
VX-702 (2 µM): NC(=O)c1ccc(N(C(N)=O)c2c(F)cccc2F)nc1-c1ccc(F)cc1F
BI-78D3 (1 µM): O=c1[nH]nc(Sc2ncc([N+](=O)[O-])s2)n1-c1ccc2c(c1)OCCO2

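Human melanoma cell lines in 1,536-well plates were treated with two drugs together for 72 h, then fixed, stained and imaged. Values are the share of nuclei positive for cleaved PARP as a percentage of the same share in the DMSO control: 100 is the control level, higher means more apoptosis. Every drug was used at one fixed concentration, the higher of two screened. No replicate spread is given; individual values may be noisy. The marker varies much from line to line, for technical or biological reasons.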
Only some of the drugs and lines screened are listed, without regard to their results.
A dash means that no value is listed here.

Drugs	MZ2-MEL	MEL-HO	A101D	WM3526	WM3619	UACC-257	COLO 792	UACC-62
GW2580 and OSU-03012	84.4	60.0	449	335	236	23.2	142	151
BI-78D3 and fingolimod	772	2480	1060	3770	3750	155	7110	341
JZL184 and Src-I1	99.8	207	152	78.7	109	73.6	111	158
tamatinib and decitabine	234	114	1060	331	150	170	601	153
OSU-03012 and cediranib	224	177	436	362	1280	396	195	227
Src-I1 and OSU-03012	170	136	304	443	1170	55.5	307	337
GSK650394 and Src-I1	66.8	128	70.8	167	143	44.6	79.3	32.9
SU6656 and cediranib	312	85.4	154	205	133	88.2	179	130
Src-I1 and VX-702	81.1	190	281	99.2	100	32.0	61.3	250
darinaparsin and CHIR-265	256	39.5	112	1010	259	97.1	935	341
darinaparsin and docetaxel	-	97.2	128	1590	232	67.6	574	448
VX-702 and SNS-314	197	89.8	202	131	132	41.9	205	119
tamatinib and BI-78D3	187	157	405	156	167	114	257	105
CHIR-265 and BI-78D3	100	122	266	1120	217	45.5	682	272
OSU-03012 and darinaparsin	322	77.8	348	962	128	89.5	314	242
temozolomide and OSU-03012	263	85.7	205	596	82.5	99.6	219	208
cisplatin and SU6656	181	66.4	127	160	127	64.1	148	99.3
cisplatin and GW2580	89.1	145	49.4	95.0	59.0	243	66.4	69.7
sunitinib and temozolomide	90.9	145	54.9	481	123	80.7	351	194
sunitinib and OSU-03012	199	81.2	234	312	1470	58.9	86.5	88.4
Src-I1 and SU6656	117	246	75.2	80.6	161	50.8	176	601

The first 3 entries again:

| Drugs | MZ2-MEL | MEL-HO | A101D | WM3526 | WM3619 | UACC-257 | COLO 792 | UACC-62 |
|---|---|---|---|---|---|---|---|---|
| GW2580 and OSU-03012 | 84.4 | 60.0 | 449 | 335 | 236 | 23.2 | 142 | 151 |
| BI-78D3 and fingolimod | 772 | 2480 | 1060 | 3770 | 3750 | 155 | 7110 | 341 |
| JZL184 and Src-I1 | 99.8 | 207 | 152 | 78.7 | 109 | 73.6 | 111 | 158 |